Laboratory results published in PubChem BioAssay AID493014 (National Center for Advancing Translational Sciences (NCATS), 2011).
In all, about 340,000 compounds went through this assay and about 170 (0.05%) were called active. Inconclusive results, whose numbers are uncertain, are shown with a selection of clear calls. Calls follow the shape of the dose curve; as a rule, active = well fitted inhibition curve with a large enough effect in the signal ratio, with a control signal flat (not every such curve was filed as active); inconclusive = small, poorly fitted or top-dose-only effect, or effect the other way, or a change in a side signal; inactive = flat fitted curve, though single readings scatter; the % refers to the signal ratio. Where the call is inconclusive, the potency comes from a doubtful curve fit.

Assay: qHTS Assay to Find Inhibitors of Chronic Active B-Cell Receptor Signaling;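 as to activity change, negative = inhibition: plate controls were basal doxycycline-induced cells for no effect and cells given 10 µM MG132 for full effect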
Conditions: ABC-DLBCL IkBa-CBG/CBR reporter, luminescence ratio (green luciferase fused to IkBa over red control in TMD8 lymphoma cells), 4 h; activity change, negative = inhibition: at 46.1 µM (top of the series)
Summary of the method: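 Concentration-response series (up to 46 uM) were applied to TMD8 dual-reporter cells for 4 h at 37C with doxycycline. Green/red ratio, after filter-overlap correction, defined %Activity; red signal alone was normalised to basal cells and zero luminescence.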
Potency is read from the fitted curve at half-maximal effect.

SMILES | activity change, negative = inhibition | Potency
C=C1C(=O)O[C@H]2[C@H]1[C@H](OC(=O)CC(=O)O[C@@H]1C[C@@H](C)[C@@H]3C=CC(=O)[C@@]3(C)[C@H]3OC(=O)C(=C)[C@H]13)C[C@@H](C)[C@H]1C=CC(=O)[C@]12C | inconclusive: 22.7% | –
C[C@]12CC(=CO)C(=O)C[C@@H]1CC[C@@H]1[C@@H]2CC[C@@]2(C)[C@H]1CC[C@]2(C)O | inconclusive: 3.02% | –
Cc1ccc(-c2nc(N(C)C3CCN(C)CC3)c3ccccc3n2)cc1 | inconclusive: 19.1% | –
CC(C)CCN1CCN(Cc2c(F)cccc2Cl)CC1CCO (stereo unspecified) | inactive: 5% | –
O=c1c2ccccc2nc(-c2ccccc2)n1-c1ccccc1 | inactive: 12.9% | –
COc1ccccc1Nc1ncnc2c1cnn2-c1cccc(C)c1 | inconclusive: -9.59% | –
COC1=CC(=O)OC(/C=C/c2ccccc2)C1 (stereo unspecified) | inconclusive: 19.5% | –
N#CC1=C(N)Oc2c(c(=O)oc3ccccc23)C1c1cccnc1 (stereo unspecified) | – | inconclusive: 35.5 µM [falling, single point]
CCCNC(=O)N1[C@H]2CC[C@@H]1C(C(=O)OC)=C(c1ccc(C(C)=O)cc1)C2 | inactive: 4.19% | –
CC(Cc1ccccc1)[n+]1cc(/N=C(\[O-])N(C)C)on1 (stereo unspecified) | inconclusive: -2.74% | –
CCCCn1c(O)c(C(CC)=NCCCn2ccnc2)c(=O)[nH]c1=O | inactive: 12.1% | –
Cn1ncnc2c(=O)n(C)c(=O)nc1-2 | – | inconclusive: 3.98 µM [falling, partial curve]
COc1ccc(CC(=O)N(CCN(C)C)CC2CCCN(Cc3ccccc3F)C2)cc1 (stereo unspecified) | inconclusive: -13.4% | –
O=C1C=C(Nc2ccccc2O)c2ccccc2C1=O | – | inconclusive: 2.51 µM [falling, full curve, poor fit]
O=c1c2ccccc2nc(SCC2CCCCO2)n1-c1ccccc1 (stereo unspecified) | inconclusive: 4.15% | –
CC(=O)C1C2c3ccccc3OC1(C)N=c1s/c(=C/c3cn(C)nc3C)c(=O)n12 (stereo unspecified) | inconclusive: 0.151% | –
CC1(C)OC(c2ccccc2)=C/C(=C/C=C2C(=O)NC(=S)NC2=O)O1 | – | inconclusive: 17.8 µM [falling, single point]
CCOc1ccccc1CN1CCCC(C(=O)Nc2cccc(-n3cccn3)c2)C1 (stereo unspecified) | inconclusive: -16.3% | –
CC(C)(C)n1cc(C(=O)c2ccccc2)cc1-c1ccccc1 | inconclusive: 3.34% | –
C[C@H]1CCC[C@H](O)CCCCCc2cc(O)cc(O)c2C(=O)O1 | – | inconclusive: 15.8 µM [falling, partial curve]
O=C1NC(=O)N(CCc2ccc(F)cc2)C(=O)/C1=C/c1ccco1 | inactive: 0.835% | –
O=C1NC(=O)C2(Cc3ccccc3N3CCCC32)C(=O)N1 (stereo unspecified) | inconclusive: 1.6% | –
FC(F)(F)c1cccc(-n2nnnc2C2(N3CCOCC3)CCCCC2)c1 | inconclusive: 2.99% | –
Cc1cc(C(=O)OCC(=O)Nc2cccc(F)c2)c(C)n1C1CC1 | – | inconclusive: 16.4 µM [falling, partial curve, poor fit]
COc1ccc(OC)c(N2C(=O)/C(=C/c3ccco3)C(=O)NC2=S)c1 | inactive: 2.65% | –
Cc1cc(N2C(=O)CC(N3CCC(n4c(=O)[nH]c5ccccc54)CC3)C2=O)no1 (stereo unspecified) | inconclusive: 9.38% | –

Single entries from the list.
activity change, negative = inhibition, Cc1ccc(-c2nc(N(C)C3CCN(C)CC3)c3ccccc3n2)cc1 is entered as inconclusive: 19.1%
activity change, negative = inhibition, CC(=O)C1C2c3ccccc3OC1(C)N=c1s/c(=C/c3cn(C)nc3C)c(=O)n12 (stereo unspecified) is entered as inconclusive: 0.151%

More structures follow.

SMILES | activity change, negative = inhibition | Potency
Cc1ccc(OCCOc2cccc(C=C3C(=O)NC(=O)NC3=O)c2)c(C)c1 | – | inconclusive: 31.6 µM [rising, single point]
CN1CCN(CCC(=O)OC2CC3CCC(C2)N3C)CC1 (stereo unspecified) | – | inconclusive: 10.3 µM [falling, partial curve, poor fit]
NC1=C(Br)C(=O)c2ccccc2C1=O | – | inconclusive: 35.5 µM [falling, single point]
N=c1n(Cc2ccc(Cl)cc2)c2ccccc2n1CC(O)COc1ccccc1 (stereo unspecified) | inconclusive: -13.4% | –
CC(=O)OC1(Cc2ccccc2)CN2CCC1c1ccccc12 (stereo unspecified) | inconclusive: -4.99% | –
Cc1cc(NCCN)nc2ccccc12 | – | inconclusive: 5.17 µM [falling, partial curve]
O=C(COc1ccccc1)N1CCN(C/C=C/c2ccccc2)CC1 | inactive: 2.34% | –
Cc1[nH]c2ccccc2c1C1=CCNCC1 | inconclusive: -0.105% | –
COc1ccc(-c2c([C@H]3[C@@H]4C=CCC[C@@]4(C)C(=O)N3Cc3ccccc3)ccc3ccccc23)cc1OC | inconclusive: 0.223% | –
COC(=O)N(c1ccccc1)P1(=S)OCCO1 | inactive: -3.8% | –
CC(=O)N1CCN(CC(=O)Nc2ccc(C#N)c(Cl)c2)CC1 | inactive: -11.2% | –
CC(C)c1ccc(-n2c(O)c(/C=N/NC(=O)c3ccccc3O)c(=O)[nH]c2=S)cc1 | – | inconclusive: 3.55 µM [falling, partial curve]
Cn1cc(C(=O)OCC(=O)NC2(C#N)CCCC2)c2ccccc21 | inconclusive: 1.96% | –
O=C(c1ccccc1)c1cn(CC(=O)N2CCOCC2)c2ccccc12 | inactive: -1.16% | –
Cc1cc(C)nc(NC2=NCCS2)n1 | inconclusive: 6.96% | –
CCOc1cc2c(cc1OCC)-n1cccc1C(c1cccc(F)c1)NC2 (stereo unspecified) | inconclusive: -11.7% | –
COc1ccccc1CN1CCN(C(=O)Cc2ccccc2)CC1 | inconclusive: -0.942% | –
O=c1c2ccccc2nc(CSc2ncnc3nc[nH]c23)n1-c1ccccc1Cl | – | inconclusive: 5.17 µM [falling, partial curve]
COc1ccc(OC)c(Nc2nc(-c3sc(NC(=O)C(C)(C)C)nc3C)cs2)c1 | – | inconclusive: 6.31 µM [falling, single point]
CN1C2C(Br)CCCCN2c2ccc(F)cc2S1(=O)=O (stereo unspecified) | – | inconclusive: 35.5 µM [falling, partial curve, poor fit]
CC(=O)c1cccc(NC2=NCC(C)S2)c1 (stereo unspecified) | inconclusive: -24% | –
Nc1c(C(=O)N2CCOCC2)sc2nc3c(cc12)CCCC3 | – | inconclusive: 17.8 µM [falling, partial curve, poor fit]
CCCCSC1=NN1c1nc(N)nc(C)c1CC | inconclusive: 11% | –
O=c1c2ccccc2nc(/C=C/c2cccnc2)n1Cc1ccccc1 | inconclusive: -11.1% | –
Cn1cc([N+](=O)[O-])c(C(=O)Nc2ccc3c(C(F)(F)F)cc(=O)oc3c2)n1 | inactive: -17.4% | –
